Results are given in words; binding and its absence hold for the method and conditions named. In cells and extracts the contact can be indirect. Some binding calls cover weakened binding; strength is not graded here. Values belong to the molecule of their own block, whether it stands above or below them.
What was measured:
SPANXB1 = target: T1, SPANXB1 (UniProt Q9NS25); assay: co-IP; whole cell lysates of SPANXB1-overexpressing HMLE cells; precipitated in both directions, Western blot
T1 sequence: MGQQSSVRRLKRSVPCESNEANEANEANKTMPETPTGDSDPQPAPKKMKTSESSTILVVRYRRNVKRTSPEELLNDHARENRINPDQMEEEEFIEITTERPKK

Protein sequences, listed by entry. Tags and fused reporters are not part of them.
UniProt Q99962: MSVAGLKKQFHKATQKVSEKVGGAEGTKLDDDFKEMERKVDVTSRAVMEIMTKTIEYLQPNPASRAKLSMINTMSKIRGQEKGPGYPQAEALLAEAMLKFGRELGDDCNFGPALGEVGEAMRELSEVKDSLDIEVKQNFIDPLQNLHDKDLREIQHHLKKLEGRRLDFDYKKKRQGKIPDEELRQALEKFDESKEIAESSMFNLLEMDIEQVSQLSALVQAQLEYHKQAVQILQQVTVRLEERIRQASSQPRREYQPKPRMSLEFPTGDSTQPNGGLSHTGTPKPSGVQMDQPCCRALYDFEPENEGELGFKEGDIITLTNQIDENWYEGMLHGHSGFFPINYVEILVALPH

[1] = target: T2, SPANXB1 (human (endogenous in MDA-MB-231)) (UniProt Q9NS25); assay: co-IP; whole cell lysates of naïve MDA-MB-231 cells; precipitated in both directions, Western blot (Fig. S4)
T2 sequence: T1 sequence

[2] = target: SH3GL2 (human (endogenous in HMLE)) (UniProt Q99962); assay: co-IP; whole cell lysates of SPANXB1-overexpressing HMLE cells; precipitated in both directions, Western blot
[3] = target: SH3GL2 (human (endogenous in MDA-MB-231)) (UniProt Q99962); assay: co-IP; whole cell lysates of naïve MDA-MB-231 cells; precipitated in both directions, Western blot (Fig. S4)

binding (SPANXB1): binds | binding [1]: binds
Molecule: SH3GL2 (from UniProt Q99962 1-352)

binding [2]: binds | binding [3]: binds
B1: SPANXB1 (protein, UniProt Q9NS25 1-103)
chain: T1 sequence

Reference: publication PMC6690992
